{"source": "PubChem BioAssay AID743458 (Peter MacCallum Cancer Centre, 2014)", "purpose": "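Retest earlier hits with independent siRNAs per gene for restoring vorinostat sensitivity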 (follow-up of hits)", "cells": "human HCT116-VR colon cancer cells made resistant to vorinostat", "reagents": "single siRNA or pool against human genes, 25 nM per single siRNA", "time to read-out": "about 72 h after transfection, including 24 h of drug", "challenge": "vorinostat, 2.5 µM final, for 24 h", "detection": "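Cell viability by fluorescence and apoptosis by caspase 3/7 luminescence under vorinostat, background-corrected, averaged across two plate copies and given as fold change versus mock transfection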", "reading the numbers": "viability relative to mock: higher = more living cells than mock; caspase activity relative to mock: higher = more apoptosis than mock", "rule for the call": "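Active means a reduced-viability or caspase-activation class, anything else inactive; classes could only be given to wells that looked healthy when left untreated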", "note": "This is one part, drawn at random, of about 1,800 reagents. In the full data, 732 (41%) are marked active. 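Calls are per siRNA reagent; a gene was deemed confirmed only if most of its four siRNAs scored.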 A number with no mark means an inactive call. Reagents against one gene are numbered here."}
{"target gene":"MAT2A (methionine adenosyltransferase 2A)","reagent no.":1,"viability relative to mock":"0.41 (active)","caspase activity relative to mock":2.76,"viability hit class":"reduced viability","caspase hit class":"caspase activation"}
{"target gene":"MAT2A (methionine adenosyltransferase 2A)","reagent no.":2,"viability relative to mock":0.84,"caspase activity relative to mock":1.18,"viability hit class":"no change","caspase hit class":"no change"}
{"target gene":"MAT2A (methionine adenosyltransferase 2A)","reagent no.":3,"viability relative to mock":0.66,"caspase activity relative to mock":1.26,"viability hit class":"no change","caspase hit class":"no change"}
{"target gene":"MAT2A (methionine adenosyltransferase 2A)","reagent no.":4,"viability relative to mock":0.68,"caspase activity relative to mock":0.96,"viability hit class":"no change","caspase hit class":"no change"}
{"target gene":"NKX2-1 (NK2 homeobox 1)","reagent no.":1,"viability relative to mock":0.92,"caspase activity relative to mock":0.72,"viability hit class":"no change","caspase hit class":"no change"}
{"target gene":"NKX2-1 (NK2 homeobox 1)","reagent no.":2,"viability relative to mock":0.84,"caspase activity relative to mock":1.82,"viability hit class":"no change","caspase hit class":"no change"}
{"target gene":"NKX2-1 (NK2 homeobox 1)","reagent no.":3,"viability relative to mock":"0.55 (active)","caspase activity relative to mock":3.75,"viability hit class":"reduced viability","caspase hit class":"caspase activation"}
{"target gene":"NKX2-1 (NK2 homeobox 1)","reagent no.":4,"viability relative to mock":"0.44 (active)","caspase activity relative to mock":2.96,"viability hit class":"reduced viability","caspase hit class":"caspase activation"}
{"target gene":"ZNF618 (zinc finger protein 618)","reagent no.":1,"viability relative to mock":1.09,"caspase activity relative to mock":1.23,"viability hit class":"no change","caspase hit class":"no change"}
{"target gene":"ZNF618 (zinc finger protein 618)","reagent no.":2,"viability relative to mock":"0.74 (active)","caspase activity relative to mock":2.94,"viability hit class":"no change","caspase hit class":"caspase activation"}
{"target gene":"ZNF618 (zinc finger protein 618)","reagent no.":3,"viability relative to mock":0.86,"caspase activity relative to mock":1.52,"viability hit class":"no change","caspase hit class":"no change"}
{"target gene":"ZNF618 (zinc finger protein 618)","reagent no.":4,"viability relative to mock":"0.92 (active)","caspase activity relative to mock":2.91,"viability hit class":"no change","caspase hit class":"caspase activation"}
{"target gene":"C1QTNF7 (C1q and TNF related 7)","reagent no.":1,"viability relative to mock":0.95,"caspase activity relative to mock":1.1,"viability hit class":"no change","caspase hit class":"no change"}
{"target gene":"C1QTNF7 (C1q and TNF related 7)","reagent no.":2,"viability relative to mock":0.85,"caspase activity relative to mock":0.88,"viability hit class":"no change","caspase hit class":"no change"}
{"target gene":"C1QTNF7 (C1q and TNF related 7)","reagent no.":3,"viability relative to mock":0.84,"caspase activity relative to mock":0.74,"viability hit class":"no change","caspase hit class":"no change"}
{"target gene":"C1QTNF7 (C1q and TNF related 7)","reagent no.":4,"viability relative to mock":0.25,"caspase activity relative to mock":1.21,"viability hit class":"no change","caspase hit class":"no change"}
{"target gene":"HSPA6 (heat shock protein family A (Hsp70) member 6)","reagent no.":1,"viability relative to mock":0.98,"caspase activity relative to mock":2.1,"viability hit class":"no change","caspase hit class":"no change"}
{"target gene":"HSPA6 (heat shock protein family A (Hsp70) member 6)","reagent no.":2,"viability relative to mock":"0.55 (active)","caspase activity relative to mock":3.84,"viability hit class":"reduced viability","caspase hit class":"caspase activation"}
{"target gene":"HSPA6 (heat shock protein family A (Hsp70) member 6)","reagent no.":3,"viability relative to mock":0.9,"caspase activity relative to mock":2.5,"viability hit class":"no change","caspase hit class":"no change"}
{"target gene":"HSPA6 (heat shock protein family A (Hsp70) member 6)","reagent no.":4,"viability relative to mock":"0.82 (active)","caspase activity relative to mock":3.98,"viability hit class":"no change","caspase hit class":"caspase activation"}
{"target gene":"RCE1 (Ras converting CAAX endopeptidase 1)","reagent no.":1,"viability relative to mock":1.05,"caspase activity relative to mock":1.03,"viability hit class":"no change","caspase hit class":"no change"}
{"target gene":"RCE1 (Ras converting CAAX endopeptidase 1)","reagent no.":2,"viability relative to mock":0.9,"caspase activity relative to mock":2.23,"viability hit class":"no change","caspase hit class":"no change"}
{"target gene":"RCE1 (Ras converting CAAX endopeptidase 1)","reagent no.":3,"viability relative to mock":0.87,"caspase activity relative to mock":0.98,"viability hit class":"no change","caspase hit class":"no change"}
{"target gene":"RCE1 (Ras converting CAAX endopeptidase 1)","reagent no.":4,"viability relative to mock":0.93,"caspase activity relative to mock":0.75,"viability hit class":"no change","caspase hit class":"no change"}
{"target gene":"HLA-DQA2 (major histocompatibility complex, class II, DQ alpha 2)","reagent no.":1,"viability relative to mock":"0.86 (active)","caspase activity relative to mock":3.68,"viability hit class":"no change","caspase hit class":"caspase activation"}
{"target gene":"HLA-DQA2 (major histocompatibility complex, class II, DQ alpha 2)","reagent no.":2,"viability relative to mock":0.59,"caspase activity relative to mock":2.46,"viability hit class":"no change","caspase hit class":"no change"}
{"target gene":"HLA-DQA2 (major histocompatibility complex, class II, DQ alpha 2)","reagent no.":3,"viability relative to mock":0.89,"caspase activity relative to mock":1.5,"viability hit class":"no change","caspase hit class":"no change"}
{"target gene":"HLA-DQA2 (major histocompatibility complex, class II, DQ alpha 2)","reagent no.":4,"viability relative to mock":0.92,"caspase activity relative to mock":1.79,"viability hit class":"no change","caspase hit class":"no change"}

Entries listed so far called active, once more:
{"target gene":"MAT2A (methionine adenosyltransferase 2A)","reagent no.":1,"viability relative to mock":"0.41 (active)","caspase activity relative to mock":2.76,"viability hit class":"reduced viability","caspase hit class":"caspase activation"}
{"target gene":"NKX2-1 (NK2 homeobox 1)","reagent no.":3,"viability relative to mock":"0.55 (active)","caspase activity relative to mock":3.75,"viability hit class":"reduced viability","caspase hit class":"caspase activation"}
{"target gene":"NKX2-1 (NK2 homeobox 1)","reagent no.":4,"viability relative to mock":"0.44 (active)","caspase activity relative to mock":2.96,"viability hit class":"reduced viability","caspase hit class":"caspase activation"}
{"target gene":"ZNF618 (zinc finger protein 618)","reagent no.":2,"viability relative to mock":"0.74 (active)","caspase activity relative to mock":2.94,"viability hit class":"no change","caspase hit class":"caspase activation"}
{"target gene":"ZNF618 (zinc finger protein 618)","reagent no.":4,"viability relative to mock":"0.92 (active)","caspase activity relative to mock":2.91,"viability hit class":"no change","caspase hit class":"caspase activation"}
{"target gene":"HSPA6 (heat shock protein family A (Hsp70) member 6)","reagent no.":2,"viability relative to mock":"0.55 (active)","caspase activity relative to mock":3.84,"viability hit class":"reduced viability","caspase hit class":"caspase activation"}
{"target gene":"HSPA6 (heat shock protein family A (Hsp70) member 6)","reagent no.":4,"viability relative to mock":"0.82 (active)","caspase activity relative to mock":3.98,"viability hit class":"no change","caspase hit class":"caspase activation"}
{"target gene":"HLA-DQA2 (major histocompatibility complex, class II, DQ alpha 2)","reagent no.":1,"viability relative to mock":"0.86 (active)","caspase activity relative to mock":3.68,"viability hit class":"no change","caspase hit class":"caspase activation"}
